Data as given in the supplement of paper PMC10849652.
The list shows a part of the results.

Amino acid sequences for entries named in this document (tags omitted). A change or cut given only in a name is not applied to a line headed by its entry.
UniProt Q96EV2: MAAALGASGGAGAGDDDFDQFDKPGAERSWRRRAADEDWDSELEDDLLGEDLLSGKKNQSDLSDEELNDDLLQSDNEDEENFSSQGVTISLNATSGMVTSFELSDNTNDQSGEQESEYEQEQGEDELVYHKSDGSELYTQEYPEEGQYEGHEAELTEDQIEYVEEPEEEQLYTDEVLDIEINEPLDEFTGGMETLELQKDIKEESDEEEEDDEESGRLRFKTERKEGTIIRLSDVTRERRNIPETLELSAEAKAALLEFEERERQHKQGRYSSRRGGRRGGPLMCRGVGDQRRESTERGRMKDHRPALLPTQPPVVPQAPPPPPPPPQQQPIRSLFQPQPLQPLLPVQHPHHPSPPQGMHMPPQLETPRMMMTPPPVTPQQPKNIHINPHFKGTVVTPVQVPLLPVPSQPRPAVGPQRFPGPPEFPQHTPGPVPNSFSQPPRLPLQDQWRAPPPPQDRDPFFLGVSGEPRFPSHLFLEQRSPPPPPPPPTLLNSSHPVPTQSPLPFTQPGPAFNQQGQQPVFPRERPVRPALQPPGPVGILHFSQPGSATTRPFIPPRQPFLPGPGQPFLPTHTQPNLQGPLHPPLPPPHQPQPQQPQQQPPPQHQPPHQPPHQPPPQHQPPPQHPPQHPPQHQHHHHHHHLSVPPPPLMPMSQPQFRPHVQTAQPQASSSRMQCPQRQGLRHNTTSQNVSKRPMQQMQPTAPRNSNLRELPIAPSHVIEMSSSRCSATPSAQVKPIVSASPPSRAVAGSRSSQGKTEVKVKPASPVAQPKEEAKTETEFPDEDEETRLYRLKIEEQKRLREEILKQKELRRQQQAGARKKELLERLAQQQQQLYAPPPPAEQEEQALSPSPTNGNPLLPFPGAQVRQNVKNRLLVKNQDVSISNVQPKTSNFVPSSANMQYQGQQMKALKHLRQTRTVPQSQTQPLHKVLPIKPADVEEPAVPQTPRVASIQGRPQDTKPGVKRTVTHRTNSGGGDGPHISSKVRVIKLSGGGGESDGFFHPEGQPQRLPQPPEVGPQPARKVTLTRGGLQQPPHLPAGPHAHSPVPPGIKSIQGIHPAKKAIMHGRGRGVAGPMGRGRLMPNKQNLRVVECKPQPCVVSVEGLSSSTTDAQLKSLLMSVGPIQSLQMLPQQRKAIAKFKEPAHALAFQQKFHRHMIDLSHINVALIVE
UniProt Q96D71: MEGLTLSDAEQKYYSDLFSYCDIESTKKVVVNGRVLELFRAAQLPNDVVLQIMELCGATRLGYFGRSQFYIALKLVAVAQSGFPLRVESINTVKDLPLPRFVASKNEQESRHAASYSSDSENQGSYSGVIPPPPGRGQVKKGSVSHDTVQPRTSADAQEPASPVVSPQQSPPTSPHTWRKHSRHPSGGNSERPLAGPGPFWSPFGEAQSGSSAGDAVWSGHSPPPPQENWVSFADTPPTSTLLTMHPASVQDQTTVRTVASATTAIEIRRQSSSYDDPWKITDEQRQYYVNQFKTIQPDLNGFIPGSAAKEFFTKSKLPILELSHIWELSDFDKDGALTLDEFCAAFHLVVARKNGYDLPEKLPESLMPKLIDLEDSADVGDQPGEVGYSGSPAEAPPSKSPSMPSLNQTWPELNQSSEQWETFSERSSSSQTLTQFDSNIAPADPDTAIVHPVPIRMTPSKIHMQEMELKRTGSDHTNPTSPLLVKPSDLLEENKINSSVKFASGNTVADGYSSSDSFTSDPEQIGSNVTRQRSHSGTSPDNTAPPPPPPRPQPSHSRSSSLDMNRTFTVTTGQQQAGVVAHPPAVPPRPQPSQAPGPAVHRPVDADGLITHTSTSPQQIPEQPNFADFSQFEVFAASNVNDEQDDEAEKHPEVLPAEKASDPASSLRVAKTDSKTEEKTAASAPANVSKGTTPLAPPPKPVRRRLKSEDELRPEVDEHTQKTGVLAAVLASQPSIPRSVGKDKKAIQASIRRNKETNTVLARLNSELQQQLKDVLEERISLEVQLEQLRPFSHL
UniProt P98179: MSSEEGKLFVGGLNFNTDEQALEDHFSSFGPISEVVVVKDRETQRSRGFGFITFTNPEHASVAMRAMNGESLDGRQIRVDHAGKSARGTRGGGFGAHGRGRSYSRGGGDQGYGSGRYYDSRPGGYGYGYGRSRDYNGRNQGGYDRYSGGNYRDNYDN
UniProt Q8TAC1: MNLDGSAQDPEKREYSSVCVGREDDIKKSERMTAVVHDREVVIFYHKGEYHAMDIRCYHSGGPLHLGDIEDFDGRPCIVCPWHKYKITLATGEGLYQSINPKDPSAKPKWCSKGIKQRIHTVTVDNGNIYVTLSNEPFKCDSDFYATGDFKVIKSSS
UniProt Q9BTD8: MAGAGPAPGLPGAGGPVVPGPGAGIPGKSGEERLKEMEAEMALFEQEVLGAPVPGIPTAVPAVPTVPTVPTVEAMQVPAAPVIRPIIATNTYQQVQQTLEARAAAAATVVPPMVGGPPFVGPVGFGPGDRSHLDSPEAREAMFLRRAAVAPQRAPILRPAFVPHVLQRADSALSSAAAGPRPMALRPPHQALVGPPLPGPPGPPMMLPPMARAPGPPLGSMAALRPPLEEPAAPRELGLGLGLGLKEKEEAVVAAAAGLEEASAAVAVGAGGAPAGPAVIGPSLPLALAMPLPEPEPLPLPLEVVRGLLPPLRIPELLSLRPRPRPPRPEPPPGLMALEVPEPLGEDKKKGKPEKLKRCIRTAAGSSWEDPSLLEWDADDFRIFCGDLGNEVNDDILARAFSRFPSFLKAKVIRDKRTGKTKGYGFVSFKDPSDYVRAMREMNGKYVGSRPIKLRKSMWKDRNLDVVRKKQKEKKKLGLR
UniProt P38159: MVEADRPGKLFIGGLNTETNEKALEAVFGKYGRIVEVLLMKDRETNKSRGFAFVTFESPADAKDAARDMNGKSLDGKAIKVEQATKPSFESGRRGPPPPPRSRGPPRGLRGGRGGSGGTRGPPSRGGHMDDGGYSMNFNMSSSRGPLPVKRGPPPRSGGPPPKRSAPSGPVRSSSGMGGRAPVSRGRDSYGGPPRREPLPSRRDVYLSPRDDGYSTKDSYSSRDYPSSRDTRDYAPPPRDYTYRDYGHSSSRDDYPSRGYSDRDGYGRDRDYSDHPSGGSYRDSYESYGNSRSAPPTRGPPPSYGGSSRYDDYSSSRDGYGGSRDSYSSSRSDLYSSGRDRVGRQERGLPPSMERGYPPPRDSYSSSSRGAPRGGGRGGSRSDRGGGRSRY
UniProt Q8IZV5: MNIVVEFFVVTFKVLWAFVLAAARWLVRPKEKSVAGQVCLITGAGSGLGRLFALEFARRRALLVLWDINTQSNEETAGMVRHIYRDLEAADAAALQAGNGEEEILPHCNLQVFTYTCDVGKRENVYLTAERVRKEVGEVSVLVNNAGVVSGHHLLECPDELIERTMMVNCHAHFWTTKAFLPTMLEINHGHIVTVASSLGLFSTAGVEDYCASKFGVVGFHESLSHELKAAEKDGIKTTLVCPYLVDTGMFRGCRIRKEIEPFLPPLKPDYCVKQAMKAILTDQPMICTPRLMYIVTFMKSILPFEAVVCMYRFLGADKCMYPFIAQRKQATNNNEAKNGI
UniProt Q9P2R6: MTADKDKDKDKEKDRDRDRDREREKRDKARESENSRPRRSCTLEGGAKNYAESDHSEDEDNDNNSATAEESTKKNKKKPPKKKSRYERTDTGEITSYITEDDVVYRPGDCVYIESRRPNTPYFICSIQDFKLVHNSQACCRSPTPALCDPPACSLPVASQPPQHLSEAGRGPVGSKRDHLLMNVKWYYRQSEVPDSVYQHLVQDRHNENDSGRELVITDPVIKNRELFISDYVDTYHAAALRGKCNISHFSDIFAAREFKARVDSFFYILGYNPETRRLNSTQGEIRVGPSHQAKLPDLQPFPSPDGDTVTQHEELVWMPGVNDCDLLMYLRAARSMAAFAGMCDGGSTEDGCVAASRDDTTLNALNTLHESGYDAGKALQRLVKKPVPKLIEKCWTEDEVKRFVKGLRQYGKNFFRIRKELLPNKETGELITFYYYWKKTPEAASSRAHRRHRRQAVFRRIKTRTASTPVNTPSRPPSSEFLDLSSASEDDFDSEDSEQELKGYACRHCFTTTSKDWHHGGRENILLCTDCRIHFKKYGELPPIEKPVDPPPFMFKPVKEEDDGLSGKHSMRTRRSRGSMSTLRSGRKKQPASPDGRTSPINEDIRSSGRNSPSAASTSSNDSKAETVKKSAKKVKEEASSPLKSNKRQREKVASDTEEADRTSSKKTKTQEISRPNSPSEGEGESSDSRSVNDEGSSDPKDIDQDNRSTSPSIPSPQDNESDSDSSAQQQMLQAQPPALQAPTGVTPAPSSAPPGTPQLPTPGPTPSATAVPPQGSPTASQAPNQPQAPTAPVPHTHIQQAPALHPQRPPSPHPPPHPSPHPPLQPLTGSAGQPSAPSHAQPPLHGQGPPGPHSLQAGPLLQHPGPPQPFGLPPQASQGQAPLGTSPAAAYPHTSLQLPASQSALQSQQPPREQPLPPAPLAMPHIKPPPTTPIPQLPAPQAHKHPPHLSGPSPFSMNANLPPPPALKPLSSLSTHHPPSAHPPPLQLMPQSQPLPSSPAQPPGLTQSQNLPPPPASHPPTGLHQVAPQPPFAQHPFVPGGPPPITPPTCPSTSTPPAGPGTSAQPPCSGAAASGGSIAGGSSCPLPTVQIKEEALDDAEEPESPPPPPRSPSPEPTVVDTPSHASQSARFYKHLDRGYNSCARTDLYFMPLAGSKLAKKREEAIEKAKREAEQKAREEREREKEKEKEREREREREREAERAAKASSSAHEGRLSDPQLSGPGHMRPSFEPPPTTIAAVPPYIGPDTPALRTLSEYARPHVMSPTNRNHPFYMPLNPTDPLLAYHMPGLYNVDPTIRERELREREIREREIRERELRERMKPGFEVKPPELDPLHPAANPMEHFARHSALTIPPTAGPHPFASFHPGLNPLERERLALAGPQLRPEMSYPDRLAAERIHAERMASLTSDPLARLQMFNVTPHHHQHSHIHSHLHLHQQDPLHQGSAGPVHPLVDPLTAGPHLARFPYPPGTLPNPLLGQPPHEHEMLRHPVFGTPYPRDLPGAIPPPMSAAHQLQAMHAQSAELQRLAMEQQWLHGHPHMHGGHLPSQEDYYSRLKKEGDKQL
UniProt Q5T160: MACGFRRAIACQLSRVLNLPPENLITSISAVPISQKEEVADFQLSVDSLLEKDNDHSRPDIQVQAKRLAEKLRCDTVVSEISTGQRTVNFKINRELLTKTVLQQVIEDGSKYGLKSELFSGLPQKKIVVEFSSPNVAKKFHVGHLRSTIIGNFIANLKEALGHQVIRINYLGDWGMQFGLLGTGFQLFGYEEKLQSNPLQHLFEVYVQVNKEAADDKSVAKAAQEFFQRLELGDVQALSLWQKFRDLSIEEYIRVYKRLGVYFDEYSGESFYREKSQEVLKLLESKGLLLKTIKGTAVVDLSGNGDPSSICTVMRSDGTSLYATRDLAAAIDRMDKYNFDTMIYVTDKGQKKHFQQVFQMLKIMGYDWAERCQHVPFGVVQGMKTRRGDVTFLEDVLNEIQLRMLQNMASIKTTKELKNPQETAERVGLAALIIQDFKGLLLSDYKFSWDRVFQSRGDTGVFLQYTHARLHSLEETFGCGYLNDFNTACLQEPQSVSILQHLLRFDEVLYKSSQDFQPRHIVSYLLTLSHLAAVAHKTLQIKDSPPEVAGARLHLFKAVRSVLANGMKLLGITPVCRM
UniProt O43665: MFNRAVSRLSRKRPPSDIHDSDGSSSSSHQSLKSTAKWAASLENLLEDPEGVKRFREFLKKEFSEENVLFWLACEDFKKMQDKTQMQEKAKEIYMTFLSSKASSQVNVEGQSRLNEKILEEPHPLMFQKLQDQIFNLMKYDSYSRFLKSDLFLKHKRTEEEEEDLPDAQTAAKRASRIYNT
UniProt P48382: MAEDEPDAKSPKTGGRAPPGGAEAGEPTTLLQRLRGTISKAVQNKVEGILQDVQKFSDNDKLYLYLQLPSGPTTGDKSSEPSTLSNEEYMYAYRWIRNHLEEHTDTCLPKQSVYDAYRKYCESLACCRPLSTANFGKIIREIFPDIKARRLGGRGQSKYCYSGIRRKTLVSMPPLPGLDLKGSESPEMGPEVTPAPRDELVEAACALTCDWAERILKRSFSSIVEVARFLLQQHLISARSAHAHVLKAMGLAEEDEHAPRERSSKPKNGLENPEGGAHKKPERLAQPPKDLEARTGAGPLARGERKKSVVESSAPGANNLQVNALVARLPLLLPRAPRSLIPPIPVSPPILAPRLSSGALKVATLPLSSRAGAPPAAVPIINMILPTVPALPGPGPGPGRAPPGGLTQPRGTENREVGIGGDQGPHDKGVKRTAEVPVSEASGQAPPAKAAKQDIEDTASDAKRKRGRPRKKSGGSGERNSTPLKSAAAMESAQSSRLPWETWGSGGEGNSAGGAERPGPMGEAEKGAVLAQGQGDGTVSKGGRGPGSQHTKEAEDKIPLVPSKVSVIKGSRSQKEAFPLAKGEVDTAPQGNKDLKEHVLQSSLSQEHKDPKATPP

compound: Cc1cc(Nc2cc(CN3CCOCC3)c3nc(C)c(Cc4ccc(Cl)cc4F)n3n2)n[nH]1 [gandotinib]; experiment: log2 fold change, soluble protein after heating vs DMSO (PISA); higher = thermal stabilisation; K562 lysate, 10 uM; active = over 0.2 and 3.5 SD of the protein, either way, in both replicates (recomputed)
How it was run: (§1)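 The values are log-two fold changes in thermal stability compared with solvent controls and come from duplicates. They were obtained by TMTpro 16plex LC-MS/MS, with channel sums equalised, on the supernatant after 21,000xg for 90 min. That supernatant came from crude K562 extract at 1 mg/mL protein treated with 10 μM compound for 30 min, heated for 3 min across 48°C-58°C, pooled and brought to 0.5% NP-40 at 4°C.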

Which log2 fold change does the source give for RBL1 (UniProt P28749) here?
Its log2 fold change is inactive: 0.032.

RBBP4 (UniProt Q09028) was tested. Which log2 fold change did it give?
Its log2 fold change is inactive: 0.078.

For RCOR1 (UniProt Q9UKL0), which log2 fold change is on record?
The log2 fold change was inactive: -0.009.

How did the log2 fold change turn out when RBM33 (UniProt Q96EV2) was run?
The log2 fold change was inactive: -0.058.

How did the log2 fold change turn out when RFX1 (UniProt P22670) was run?
The log2 fold change was inactive: 0.017.

With RBM28 (UniProt Q9NW13) as the target, how does the log2 fold change read?
The log2 fold change was inactive: -0.089.

How did the log2 fold change turn out when RAVER1 (UniProt E9PAU2) was run?
The log2 fold change was inactive: -0.033.

How did the log2 fold change turn out when RCSD1 (UniProt Q6JBY9) was run?
Its log2 fold change is inactive: 0.034.

For RBM39 (UniProt Q14498), which log2 fold change is on record?
Its log2 fold change is inactive: -0.087.

With RFT1 (UniProt Q96AA3) as the target, how does the log2 fold change read?
Its log2 fold change is inactive: -0.03.

How did the log2 fold change turn out when RENBP (UniProt P51606) was run?
The log2 fold change was inactive: 0.

Which log2 fold change does the source give for RECQL5 (UniProt O94762) here?
Its log2 fold change is inactive: -0.15.

How did the log2 fold change turn out when RELN (UniProt P78509) was run?
The log2 fold change was inactive: 0.057.

How did the log2 fold change turn out when RFXAP (UniProt O00287) was run?
The log2 fold change was inactive: 0.152.

RASA3 (UniProt Q14644) was tested. Which log2 fold change did it give?
The log2 fold change was inactive: -0.026.

With REPS1 (UniProt Q96D71) as the target, how does the log2 fold change read?
The log2 fold change was inactive: 0.037.

Which log2 fold change does the source give for RBM3 (UniProt P98179) here?
The log2 fold change was inactive: 0.016.

For RCN3 (UniProt Q96D15), which log2 fold change is on record?
The log2 fold change was inactive: 0.087.

With RASA2 (UniProt Q15283) as the target, how does the log2 fold change read?
The log2 fold change was inactive: -0.087.

With RFESD isoform 2 (UniProt Q8TAC1) as the target, how does the log2 fold change read?
Its log2 fold change is inactive: -0.041.

With RBM42 (UniProt Q9BTD8) as the target, how does the log2 fold change read?
Its log2 fold change is inactive: 0.04.

With RASA1 (UniProt P20936) as the target, how does the log2 fold change read?
The log2 fold change was inactive: -0.044.

Which log2 fold change does the source give for RBMX (UniProt P38159) here?
Its log2 fold change is inactive: -0.003.

RCOR3 isoform 3 (UniProt Q9P2K3) was tested. Which log2 fold change did it give?
Its log2 fold change is inactive: -0.024.

For REEP6 (UniProt Q96HR9), which log2 fold change is on record?
Its log2 fold change is inactive: 0.056.

RCC1L (UniProt Q96I51) was tested. Which log2 fold change did it give?
Its log2 fold change is inactive: -0.082.

With RDH10 (UniProt Q8IZV5) as the target, how does the log2 fold change read?
Its log2 fold change is inactive: 0.055.

RERE (UniProt Q9P2R6) was tested. Which log2 fold change did it give?
The log2 fold change was inactive: 0.117.

Which log2 fold change does the source give for RCAN1 (UniProt P53805) here?
Its log2 fold change is inactive: 0.041.

With RARS2 (UniProt Q5T160) as the target, how does the log2 fold change read?
Its log2 fold change is inactive: -0.188.

How did the log2 fold change turn out when RGS10 (UniProt O43665) was run?
Its log2 fold change is inactive: 0.

Which log2 fold change does the source give for RFX5 (UniProt P48382) here?
Its log2 fold change is inactive: -0.046.

compound: Cc1cc(Nc2cc(N3CCN(C)CC3)nc(Sc3ccc(NC(=O)C4CC4)cc3)n2)n[nH]1 [tozasertib]; experiment: as above
How it was run: as §1

Which log2 fold change does the source give for RBL1 (UniProt P28749) here?
The log2 fold change was inactive: -0.023.

For RBBP4 (UniProt Q09028), which log2 fold change is on record?
The log2 fold change was inactive: 0.029.

RCOR1 (UniProt Q9UKL0) was tested. Which log2 fold change did it give?
The log2 fold change was inactive: 0.019.

How did the log2 fold change turn out when RBM33 (UniProt Q96EV2) was run?
The log2 fold change was inactive: 0.062.

Which log2 fold change does the source give for RFX1 (UniProt P22670) here?
Its log2 fold change is inactive: -0.014.

With RBM28 (UniProt Q9NW13) as the target, how does the log2 fold change read?
Its log2 fold change is inactive: -0.023.

For RAVER1 (UniProt E9PAU2), which log2 fold change is on record?
The log2 fold change was inactive: -0.087.

With RCSD1 (UniProt Q6JBY9) as the target, how does the log2 fold change read?
Its log2 fold change is inactive: -0.019.

With RBM39 (UniProt Q14498) as the target, how does the log2 fold change read?
Its log2 fold change is inactive: 0.047.

RFT1 (UniProt Q96AA3) was tested. Which log2 fold change did it give?
The log2 fold change was inactive: 0.121.

Which log2 fold change does the source give for RENBP (UniProt P51606) here?
The log2 fold change was inactive: 0.051.

How did the log2 fold change turn out when RECQL5 (UniProt O94762) was run?
The log2 fold change was inactive: 0.031.

For RELN (UniProt P78509), which log2 fold change is on record?
Its log2 fold change is inactive: -0.002.

Which log2 fold change does the source give for RFXAP (UniProt O00287) here?
The log2 fold change was inactive: 0.097.

How did the log2 fold change turn out when RASA3 (UniProt Q14644) was run?
Its log2 fold change is inactive: -0.017.

How did the log2 fold change turn out when REPS1 (UniProt Q96D71) was run?
The log2 fold change was inactive: -0.015.

Which log2 fold change does the source give for RBM3 (UniProt P98179) here?
Its log2 fold change is inactive: 0.033.

Which log2 fold change does the source give for RCN3 (UniProt Q96D15) here?
The log2 fold change was inactive: 0.043.

Which log2 fold change does the source give for RASA2 (UniProt Q15283) here?
The log2 fold change was inactive: 0.013.

For RFESD isoform 2 (UniProt Q8TAC1), which log2 fold change is on record?
The log2 fold change was inactive: -0.002.

How did the log2 fold change turn out when RBM42 (UniProt Q9BTD8) was run?
The log2 fold change was inactive: -0.001.

For RASA1 (UniProt P20936), which log2 fold change is on record?
The log2 fold change was inactive: 0.013.

With RBMX (UniProt P38159) as the target, how does the log2 fold change read?
Its log2 fold change is inactive: 0.013.

With RCOR3 isoform 3 (UniProt Q9P2K3) as the target, how does the log2 fold change read?
Its log2 fold change is inactive: 0.009.

With REEP6 (UniProt Q96HR9) as the target, how does the log2 fold change read?
Its log2 fold change is inactive: 0.097.

With RCC1L (UniProt Q96I51) as the target, how does the log2 fold change read?
Its log2 fold change is inactive: -0.022.

How did the log2 fold change turn out when RDH10 (UniProt Q8IZV5) was run?
Its log2 fold change is inactive: -0.032.

How did the log2 fold change turn out when RERE (UniProt Q9P2R6) was run?
The log2 fold change was inactive: -0.006.

Which log2 fold change does the source give for RCAN1 (UniProt P53805) here?
The log2 fold change was inactive: 0.017.

RARS2 (UniProt Q5T160) was tested. Which log2 fold change did it give?
Its log2 fold change is inactive: 0.015.

For RGS10 (UniProt O43665), which log2 fold change is on record?
The log2 fold change was inactive: -0.04.

With RFX5 (UniProt P48382) as the target, how does the log2 fold change read?
Its log2 fold change is inactive: -0.093.

compound: Cc1ccc(-n2nc(C(C)(C)C)cc2NC(=O)Nc2ccc(OCCN3CCOCC3)c3ccccc23)cc1 [doramapimod]; experiment: as above
How it was run: as §1

For RBL1 (UniProt P28749), which log2 fold change is on record?
The log2 fold change was inactive: -0.092.

RBBP4 (UniProt Q09028) was tested. Which log2 fold change did it give?
The log2 fold change was inactive: 0.032.

With RCOR1 (UniProt Q9UKL0) as the target, how does the log2 fold change read?
The log2 fold change was inactive: -0.061.

With RBM33 (UniProt Q96EV2) as the target, how does the log2 fold change read?
The log2 fold change was inactive: 0.058.

For RFX1 (UniProt P22670), which log2 fold change is on record?
The log2 fold change was inactive: -0.041.

For RBM28 (UniProt Q9NW13), which log2 fold change is on record?
Its log2 fold change is inactive: 0.09.

RAVER1 (UniProt E9PAU2) was tested. Which log2 fold change did it give?
Its log2 fold change is inactive: -0.014.

For RCSD1 (UniProt Q6JBY9), which log2 fold change is on record?
The log2 fold change was inactive: 0.016.

Which log2 fold change does the source give for RBM39 (UniProt Q14498) here?
The log2 fold change was inactive: 0.124.

For RFT1 (UniProt Q96AA3), which log2 fold change is on record?
Its log2 fold change is inactive: 0.078.

For RENBP (UniProt P51606), which log2 fold change is on record?
Its log2 fold change is inactive: -0.027.

Which log2 fold change does the source give for RECQL5 (UniProt O94762) here?
The log2 fold change was inactive: -0.008.

For RELN (UniProt P78509), which log2 fold change is on record?
The log2 fold change was inactive: -0.044.

How did the log2 fold change turn out when RFXAP (UniProt O00287) was run?
The log2 fold change was inactive: -0.024.

RASA3 (UniProt Q14644) was tested. Which log2 fold change did it give?
Its log2 fold change is inactive: -0.005.

How did the log2 fold change turn out when REPS1 (UniProt Q96D71) was run?
The log2 fold change was inactive: 0.026.

Which log2 fold change does the source give for RBM3 (UniProt P98179) here?
The log2 fold change was inactive: 0.

For RCN3 (UniProt Q96D15), which log2 fold change is on record?
The log2 fold change was inactive: -0.073.

Which log2 fold change does the source give for RASA2 (UniProt Q15283) here?
The log2 fold change was inactive: 0.072.

Which log2 fold change does the source give for RFESD isoform 2 (UniProt Q8TAC1) here?
The log2 fold change was inactive: 0.007.

RBM42 (UniProt Q9BTD8) was tested. Which log2 fold change did it give?
Its log2 fold change is active: 0.216.

RASA1 (UniProt P20936) was tested. Which log2 fold change did it give?
Its log2 fold change is inactive: -0.013.

How did the log2 fold change turn out when RBMX (UniProt P38159) was run?
Its log2 fold change is inactive: 0.008.

RCOR3 isoform 3 (UniProt Q9P2K3) was tested. Which log2 fold change did it give?
The log2 fold change was inactive: -0.048.

Which log2 fold change does the source give for REEP6 (UniProt Q96HR9) here?
The log2 fold change was inactive: 0.052.

Which log2 fold change does the source give for RCC1L (UniProt Q96I51) here?
Its log2 fold change is inactive: -0.026.

RDH10 (UniProt Q8IZV5) was tested. Which log2 fold change did it give?
Its log2 fold change is inactive: -0.012.

How did the log2 fold change turn out when RERE (UniProt Q9P2R6) was run?
The log2 fold change was inactive: 0.005.

For RCAN1 (UniProt P53805), which log2 fold change is on record?
The log2 fold change was inactive: -0.039.

Which log2 fold change does the source give for RARS2 (UniProt Q5T160) here?
Its log2 fold change is inactive: 0.

With RGS10 (UniProt O43665) as the target, how does the log2 fold change read?
The log2 fold change was inactive: -0.053.

RFX5 (UniProt P48382) was tested. Which log2 fold change did it give?
The log2 fold change was inactive: 0.026.
